PubChem BioAssay AID686938 – Drosophila RNAi Screening Center – 2013
In all, the deposit lists about 23,000 reagents; shown is a random part of those that have a named target and a result. In the full data, 75 (0.33%) got an active call. 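Raw plate signals without normalisation; calls rest on plate z-scores that were not deposited; ratio present for only 364 wells.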 Not stated in the record: the dose of the treatment.

Aim: 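Fly genes required for calcium entry once internal stores are emptied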 (primary screen)
Cells: Drosophila S2R+ cells
Knock-down reagent: long dsRNA against Drosophila genes, about 0.25 µg dsRNA per well, roughly 10,000 cells
Time to read-out: 5 days of knock-down before the calcium assay
Treatment: thapsigargin (SERCA pump blocker) to empty calcium stores; entry signal taken 4 min after adding it
Read-out: 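Duplicate raw fluo-4 intensities per well from a plate reader, at rest and four minutes after thapsigargin emptied calcium stores; entry-to-rest ratio filled for only some wells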
Scale: calcium entry signal: higher = stronger calcium signal after store depletion; entry to resting ratio: higher = more calcium entry relative to resting level; resting calcium signal: higher = higher resting calcium signal
Units: calcium entry signal in fluorescence units; resting calcium signal in fluorescence units
Call rule: 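Called when the plate z-score of the entry-to-rest ratio, mean of duplicates, falls below −3; wells with low overall dye signal (Fmax z below −2) or more than five off-targets excluded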
Calls: active = strongly reduced calcium entry; inactive = no strong reduction

gene knocked down | DRSC id | calcium entry signal, replicate 1 | calcium entry signal, replicate 2 | entry to resting ratio | resting calcium signal, replicate 1 | resting calcium signal, replicate 2 | Outcome
CG18661 | DRSC02690 | 2.49e7 | 3.29e7 | – | 1.20e7 | 1.44e7 | inactive
CG6689 | DRSC16095 | 3.91e7 | 4.74e7 | – | 1.67e7 | 2.07e7 | inactive
Tsf3 (Transferrin 3) | DRSC06849 | 3.34e7 | 3.66e7 | – | 1.59e7 | 1.84e7 | inactive
ana1 (anastral spindle 1) | DRSC16079 | 3.63e7 | 2.64e7 | – | 1.66e7 | 1.23e7 | inactive
ana1 (anastral spindle 1) | DRSC21825 | 3.63e7 | 3.28e7 | – | 1.89e7 | 1.53e7 | inactive
asf1 (anti-silencing factor 1) | DRSC11324 | 2.00e7 | 2.74e7 | – | 1.08e7 | 2.15e7 | inactive
ovo | DRSC18050 | 2.78e7 | 2.71e7 | – | 1.16e7 | 1.23e7 | inactive
ovo | DRSC18812 | 3.29e7 | 4.35e7 | – | 1.69e7 | 2.01e7 | inactive
Prx6c (Peroxiredoxin 6c) | DRSC06080 | 4.38e7 | 4.42e7 | – | 1.95e7 | 1.96e7 | inactive
CG32811 | DRSC22649 | 3.82e7 | 3.08e7 | – | 2.33e7 | 1.55e7 | inactive
CG12782 | DRSC04127 | 2.26e7 | 2.26e7 | – | 1.25e7 | 1.07e7 | inactive
rux (roughex) | DRSC18829 | 3.28e7 | 3.30e7 | – | 1.64e7 | 1.50e7 | inactive
CG6927 | DRSC18407 | 2.99e7 | 2.26e7 | – | 1.31e7 | 1.10e7 | inactive
HIPP1 (HP1 and insulator partner protein 1) | DRSC11748 | 4.73e7 | 5.10e7 | – | 2.10e7 | 3.55e7 | inactive
CG18609 | DRSC06775 | 5.96e7 | 5.21e7 | – | 2.56e7 | 2.26e7 | inactive
Ugt36A1 (UDP-glycosyltransferase family 36 member A1) | DRSC00748 | 2.95e7 | 3.54e7 | – | 1.38e7 | 1.60e7 | inactive
EMC6 (ER membrane protein complex subunit 6) | DRSC14386 | 4.41e7 | 6.59e7 | – | 1.86e7 | 2.41e7 | inactive
Gmppa (GDP-mannose pyrophosphorylase A) | DRSC07108 | 3.82e7 | 3.63e7 | – | 1.95e7 | 1.62e7 | inactive
lncRNA:sphinx (long non-coding RNA:sphinx) | DRSC17199 | 5.23e7 | 5.92e7 | 2.2 | 2.34e7 | 2.32e7 | inactive
CG14866 | DRSC14989 | 3.39e7 | 5.61e7 | – | 1.64e7 | 5.73e7 | inactive
Cby (Chibby) | DRSC14591 | 3.61e7 | 3.95e7 | – | 5.39e7 | 1.74e7 | inactive
PAPLA1 (Phosphatidic Acid Phospholipase A1) | DRSC03095 | 4.72e7 | – | – | 2.43e7 | – | inactive
PAPLA1 (Phosphatidic Acid Phospholipase A1) | DRSC03096 | 2.81e7 | 4.63e7 | – | 1.41e7 | 2.00e7 | inactive
Ac13E (Adenylyl cyclase 13E) | DRSC19325 | 3.31e7 | 2.99e7 | – | 1.80e7 | 1.28e7 | inactive
Gnptab | DRSC07057 | 4.30e7 | 3.99e7 | – | 1.90e7 | 1.84e7 | inactive
CG1418 | DRSC06447 | 2.29e7 | 3.26e7 | – | 1.19e7 | 1.33e7 | inactive
mib1 (mind bomb 1) | DRSC10550 | 4.75e7 | 4.90e7 | – | 2.08e7 | 1.93e7 | inactive
Dsor1 (Downstream of raf1) | DRSC18462 | 2.86e7 | 2.67e7 | – | 1.72e7 | 1.62e7 | inactive
wapl (wings apart-like) | DRSC18851 | 2.90e7 | 3.50e7 | – | 1.44e7 | 1.74e7 | inactive
HGTX | DRSC09319 | 3.16e7 | 3.48e7 | – | 1.47e7 | 1.54e7 | inactive
HGTX | DRSC11181 | 4.36e7 | 5.57e7 | – | 2.01e7 | 2.32e7 | inactive
Nup205 (Nucleoporin 205kD) | DRSC19432 | 2.81e7 | 2.67e7 | – | 1.57e7 | 1.44e7 | inactive
Trpm (Transient receptor potential cation channel, subfamily M) | DRSC06629 | 2.39e7 | 2.07e7 | – | 1.10e7 | 9.58e6 | inactive
Trpm (Transient receptor potential cation channel, subfamily M) | DRSC21566 | 3.62e7 | 3.03e7 | – | 2.05e7 | 1.36e7 | inactive
CG2991 | DRSC00559 | 3.62e7 | – | – | 2.12e7 | – | inactive
Amy-d (Amylase distal) | DRSC05919 | 4.74e7 | 4.32e7 | – | 2.18e7 | 2.03e7 | inactive
CG7497 | DRSC10857 | 3.21e7 | 3.84e7 | – | 1.42e7 | 2.61e7 | inactive
His-Psi:CR31754 (pseudo) | DRSC22051 | 2.24e7 | 4.77e7 | – | 1.32e7 | 2.45e7 | inactive
sax (saxophone) | DRSC07675 | 3.29e7 | 2.86e7 | – | 1.49e7 | 1.44e7 | inactive
CG5446 | DRSC02862 | 3.71e7 | 2.74e7 | – | 1.75e7 | 1.27e7 | inactive

Single entries from the list:
asf1 (anti-silencing factor 1) [DRSC11324], resting calcium signal, replicate 1 → 1.08e7
ana1 (anastral spindle 1) [DRSC16079], Outcome → inactive
mib1 (mind bomb 1) [DRSC10550], calcium entry signal, replicate 1 = 4.75e7
For “resting calcium signal, replicate 1”, EMC6 (ER membrane protein complex subunit 6) [DRSC14386] is entered as 1.86e7
Value for Gmppa (GDP-mannose pyrophosphorylase A) [DRSC07108] under “resting calcium signal, replicate 2”: 1.62e7
CG14866 [DRSC14989], resting calcium signal, replicate 1: 1.64e7
